Data: publication PMC6550519, “Regulatory Mechanism of Nicotine Degradation in Pseudomonas putida” (mBio, 2019)
The exact form of at least one protein or probe is not confirmed. Negatives hold for the conditions tested.

System: NicR2 (Pseudomonas putida S16)
Test: ITC
Details: ITC: PBS, 64 uM NicR2 in cell, 100 uM DNA titrant; temperature not given; recombinant protein

“CACTAATTATACCGTCGTACATAGCATAAA (double strand) [R-m23 30 bp]”: no binding.

“CACTAATTATACCGTCGTACATCGAATAAA (double strand) [R-m34 30 bp]”: no binding.
